These are yes or no findings as the source states them, for the method shown. In cells and extracts the contact can be indirect. Some entries that bind do so weakly or less than the wild type. Sequences can lack the tags named with a protein.
Columns and labels:
Assay in all cases: co-IP; 293T cells co-transfected with two tagged constructs; MG132 12 h before harvest; EBC lysis buffer; 500 μg protein with anti-FLAG M2-agarose or anti-HA agarose beads, 3 h, 4 °C; washed four times with NETN buffer; immunoblot
[1] = target: Flag-BMPRII (type II BMP receptor) (human) (UniProt Q13873)
[2] = target: Flag-BMPRIA (type IA BMP receptor) (human) (UniProt P36894)
[3] = target: Flag-BMPRIB (type IB BMP receptor) (human) (UniProt O00238)

Amino acid sequences for entries named in this document (tags omitted). Residues count along the entry.
UniProt Q13873, residues 27-1038: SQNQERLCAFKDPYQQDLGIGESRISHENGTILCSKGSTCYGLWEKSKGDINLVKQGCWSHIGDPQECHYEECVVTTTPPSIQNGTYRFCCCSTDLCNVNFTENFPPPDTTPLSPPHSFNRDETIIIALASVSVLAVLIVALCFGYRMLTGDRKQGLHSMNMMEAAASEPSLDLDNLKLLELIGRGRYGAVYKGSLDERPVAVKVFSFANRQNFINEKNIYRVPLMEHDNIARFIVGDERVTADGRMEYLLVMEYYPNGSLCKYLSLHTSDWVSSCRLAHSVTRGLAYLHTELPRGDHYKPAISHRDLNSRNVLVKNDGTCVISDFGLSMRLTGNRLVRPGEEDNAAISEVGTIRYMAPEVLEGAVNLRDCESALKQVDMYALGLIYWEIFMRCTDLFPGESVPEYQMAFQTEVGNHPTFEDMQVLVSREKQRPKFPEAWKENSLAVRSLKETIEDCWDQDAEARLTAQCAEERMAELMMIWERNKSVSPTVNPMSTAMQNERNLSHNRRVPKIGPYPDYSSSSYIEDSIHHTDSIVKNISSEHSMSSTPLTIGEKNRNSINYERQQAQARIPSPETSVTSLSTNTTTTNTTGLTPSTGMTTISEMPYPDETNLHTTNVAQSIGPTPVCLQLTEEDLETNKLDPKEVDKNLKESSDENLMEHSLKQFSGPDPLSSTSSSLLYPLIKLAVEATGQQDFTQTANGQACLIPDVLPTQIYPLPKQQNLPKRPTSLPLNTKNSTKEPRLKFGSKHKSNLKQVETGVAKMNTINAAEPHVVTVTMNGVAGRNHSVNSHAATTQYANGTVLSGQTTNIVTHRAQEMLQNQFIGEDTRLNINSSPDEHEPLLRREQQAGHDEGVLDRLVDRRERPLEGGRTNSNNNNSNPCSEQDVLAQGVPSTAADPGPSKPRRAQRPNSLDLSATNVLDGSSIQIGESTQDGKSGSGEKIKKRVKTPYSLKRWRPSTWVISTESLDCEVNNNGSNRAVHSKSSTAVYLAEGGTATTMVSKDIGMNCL
UniProt P36894, residues 24-532: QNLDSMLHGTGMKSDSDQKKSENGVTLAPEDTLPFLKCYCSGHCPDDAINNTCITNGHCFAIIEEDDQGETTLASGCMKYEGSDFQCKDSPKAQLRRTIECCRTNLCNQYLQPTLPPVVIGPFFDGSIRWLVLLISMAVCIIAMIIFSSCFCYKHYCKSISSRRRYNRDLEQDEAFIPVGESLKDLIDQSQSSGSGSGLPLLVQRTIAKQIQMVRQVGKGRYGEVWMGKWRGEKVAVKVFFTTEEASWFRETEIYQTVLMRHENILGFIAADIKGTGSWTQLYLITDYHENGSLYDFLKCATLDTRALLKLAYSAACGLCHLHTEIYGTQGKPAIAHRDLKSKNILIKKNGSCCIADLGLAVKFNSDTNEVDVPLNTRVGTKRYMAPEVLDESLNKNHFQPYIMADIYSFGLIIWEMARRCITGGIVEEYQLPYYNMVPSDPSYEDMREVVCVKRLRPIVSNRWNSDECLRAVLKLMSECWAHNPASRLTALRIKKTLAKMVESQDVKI
UniProt O00238, residues 14-502: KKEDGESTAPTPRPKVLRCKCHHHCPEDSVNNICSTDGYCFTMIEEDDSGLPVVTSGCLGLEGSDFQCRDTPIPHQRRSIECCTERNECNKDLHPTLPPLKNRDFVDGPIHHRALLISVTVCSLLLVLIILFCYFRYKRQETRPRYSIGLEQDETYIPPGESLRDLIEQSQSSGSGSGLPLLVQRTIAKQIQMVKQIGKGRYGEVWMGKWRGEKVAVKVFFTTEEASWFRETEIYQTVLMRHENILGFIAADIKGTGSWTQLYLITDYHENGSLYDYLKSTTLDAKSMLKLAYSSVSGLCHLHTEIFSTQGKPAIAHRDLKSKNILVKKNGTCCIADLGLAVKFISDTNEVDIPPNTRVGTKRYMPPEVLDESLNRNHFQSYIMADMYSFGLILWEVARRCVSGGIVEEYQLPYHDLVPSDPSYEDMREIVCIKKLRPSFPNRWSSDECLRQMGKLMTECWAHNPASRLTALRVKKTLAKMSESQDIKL

Measured: binding

B1: HA-OMD (protein, UniProt Q99983 21-421)
chain: QYETYQWDEDYDQEPDDDYQTGFPFRQNVDYGVPFHQYTLGCVSECFCPTNFPSSMYCDNRKLKTIPNIPMHIQQLYLQFNEIEAVTANSFINATHLKEINLSHNKIKSQKIDYGVFAKLPNLLQLHLEHNNLEEFPFPLPKSLERLLLGYNEISKLQTNAMDGLVNLTMLDLCYNYLHDSLLKDKIFAKMEKLMQLNLCSNRLESMPPGLPSSLMYLSLENNSISSIPEKYFDKLPKLHTLRMSHNKLQDIPYNIFNLPNIVELSVGHNKLKQAFYIPRNLEHLYLQNNEIEKMNLTVMCPSIDPLHYHHLTYIRVDQNKLKEPISSYIFFCFPHIHTIYYGEQRSTNGQTIQLKTQVFRRFPDDDDESEDHDDPDNAHESPEQEGAEGHFDLHYYENQE
binds: [1] | [2] | [3]

Source: publication PMC7862363
